{"sequences": {"note": "The chains behind the UniProt entries cited, without tags or fusion partners. Where a name states a change or a piece, a line headed by the entry shows the natural chain unless it says otherwise.", "UniProt P19793": "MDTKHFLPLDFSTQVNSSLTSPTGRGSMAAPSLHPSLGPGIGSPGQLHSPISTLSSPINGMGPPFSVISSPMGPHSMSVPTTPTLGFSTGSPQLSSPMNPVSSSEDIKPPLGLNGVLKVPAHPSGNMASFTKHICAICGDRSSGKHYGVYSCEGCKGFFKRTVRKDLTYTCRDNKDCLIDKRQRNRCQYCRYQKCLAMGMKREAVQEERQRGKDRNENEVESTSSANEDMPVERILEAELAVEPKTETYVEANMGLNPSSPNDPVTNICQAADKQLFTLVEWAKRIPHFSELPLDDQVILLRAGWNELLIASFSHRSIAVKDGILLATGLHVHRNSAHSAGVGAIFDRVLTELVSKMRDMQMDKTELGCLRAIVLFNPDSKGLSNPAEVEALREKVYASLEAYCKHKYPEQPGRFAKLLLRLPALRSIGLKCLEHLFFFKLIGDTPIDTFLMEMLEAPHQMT"}, "source": "patent US5824484", "molecular_target": "RXR alpha homodimer (UniProt P19793)", "test": "EMSA", "settings": "with 9-cis-RA; considerably weaker than RAR-RXR heterodimer; protein translated in vitro; label: 32P", "note": "Weaker means in comparison with the reference protein, sequence or condition of that experiment."}
{"sequence": "GATCTGTAGGGTTCACCGAAAGTTCACTCAGATC (double strand) [betaRARE]", "values": [{"measurement": "binding result", "result": "binds more weakly"}]}
